Source: PubChem BioAssay AID912 (NCATS, 2007).

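Uptake of anthrax lethal toxin into cultured cells, read by FRET (460/530 nm ratio) and reported from the 460 nm channel; the cell line is not named here.
Each compound was tested as a concentration series from about 0.0005 to 40 µM.
The number is the fitted AC50 of the 460 nm signal alone; lower values mean a more potent effect. A falling signal goes with compounds filed as inhibitors or cytotoxic, a rising one with activators or fluorescent compounds (inferred from the filed classes).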

Values are in nM.
Common to all entries: measured here: 460 nm channel.
This is a side read-out of the assay, for part of the compounds, not drawn at random.
A potency from a partial, single-point or poor curve is only a rough figure.
The first word of each remark tells which way the curve ran; it can be opposite to the aim of the assay.

| compound | AC50 (nM) | remark |
|---|---|---|
| `CC1CCC(NCCc2ccc3c(c2)OCO3)CC1` (stereo not shown) | 7943 | falling, partial curve |
| `N#Cc1nc(-c2ccc(OCc3ccccc3)cc2)oc1NCc1ccco1` | 15848 | falling, partial curve, poor fit |
| `CC(C)c1ccc(NC(=O)c2cnn(-c3ccccc3)c2NC(=O)c2ccco2)cc1` | 10000 | falling, partial curve |
| `Cc1ccc(C2C(C(=O)c3sc(-c4ccccc4)nc3C)=C(O)C(=O)N2CCN(C)C)o1` (stereo not shown) | 2512 | rising, partial curve |
| `O=C(c1cc(S(=O)(=O)N2CCOCC2)ccc1F)N1CCN(Cc2ccccc2)CC1` | 79.43 | rising, full curve, poor fit |
| `CCOC(=O)c1ccccc1NC(=O)C1COc2ccccc2O1` (stereo not shown) | 10000 | falling, partial curve |
| `COC(=O)c1cc2ccsc2n1CC(=O)N1CCCc2ccccc21` | 10000 | falling, partial curve |
| `c1ccc(-c2noc(CSc3nnnn3-c3ccccc3)n2)cc1` | 3162 | falling, partial curve |
| `O=C(NC1CCCCC1)c1cccnc1C(=O)O` | 100 | falling, full curve, poor fit |
| `Cc1cc(Br)ccc1NC(=O)CNC(=O)CN1C(=O)NC2(CCCCCC2)C1=O` | 12589 | rising, partial curve |
| `COc1ccc(C(=O)N2CCC3(CC2)CCN(c2cccc(-c4ccccc4)c2)CC3)cc1` | 501.2 | rising, full curve |
| `O=C1Nc2cc(Cl)c(Cl)cc2N2CCNC[C@H]12` | 1 | rising, full curve, poor fit |
| `Cc1cc2nc3c(=O)[nH]c(=O)nc-3n(C[C@H](O)[C@H](O)[C@H](O)CO)c2cc1C` | 31622 | falling, single point |
| `O=C(c1ccccc1)c1ccccc1C(=O)N1CCCC1` | 12589 | rising, single point |
| `COc1cccc(-c2ccc3ncnc(NCCc4c[nH]c5ccc(OC)cc45)c3c2)c1` | 10000 | falling, partial curve |
| `C=CCNc1oc(-c2ccc(OCC)cc2)nc1C#N` | 5012 | falling, single point |
| `COc1ccc(CC(=O)Nc2cccc(-c3nnc(-c4cccc(C)c4)o3)c2)cc1OC` | 3981 | falling, full curve |
| `COc1cccc(C(=O)N(Cc2nc(-c3cccc(C)c3)no2)C(C)C)c1OC` | 10 | falling, full curve, poor fit |
| `CSc1nnnc2ccccc12` | 501.2 | rising, partial curve |
| `CCN1CCN(Cc2ccc(C)cc2C)CC1` | 316.2 | rising, full curve, poor fit |
| `O=C(c1cc(C(F)(F)F)cc(C(F)(F)F)c1)N1CCC2(CCCN(c3ccccc3)C2)CC1` | 1000 | falling, full curve |
| `Cc1ccc(S(=O)(=O)Nc2nsc(N)n2)cc1` | 10000 | falling, partial curve |
| `COc1ccc(CCNC(=O)C2CCN(Cc3nc(-c4ccccc4C)oc3C)CC2)cc1OC` | 31622 | rising, single point |
| `c1ccc2c(N3CCCCC3)nc(N3CCCC3)nc2c1` | 316.2 | falling, partial curve |
| `C[C@@H](C(=O)O)c1ccc(-c2ccccc2)c(F)c1` | 3.162 | rising, full curve, poor fit |
| `CN(C)c1ccc(-c2nc(N(C)Cc3ccco3)c3ccccc3n2)cc1` | 31622 | falling, single point |
| `CC1(C)Cc2c(sc3nc(SCC(=O)N4CCOCC4)nc(N)c23)CO1` | 15848 | falling, partial curve |
| `O=S(=O)(c1cccc2ccccc12)N1CCSC1` | 15848 | falling, partial curve, poor fit |
| `CCOC(=O)Cc1[nH]nc2c1C(C1C=CCCC1)C(C#N)=C(N)O2` (stereo not shown) | 10000 | rising, partial curve |
| `Clc1ccc(CSc2nnc(-c3ccccn3)n2Cc2ccco2)c(Cl)c1` | 3.981 | rising, full curve, poor fit |
| `O=C(NCCCN1CCN(CCCNC(=O)c2ccccc2F)CC1)c1ccccc1F` | 5012 | rising, partial curve, poor fit |
| `CN1CCc2cccc3c2[C@H]1Cc1ccc(O)c(O)c1-3` | 31622 | falling, partial curve |
| `Cn1nc(-c2ccc(Cl)cc2)c2cc(C(=O)NCCCN3CCOCC3)sc21` | 3981 | falling, partial curve |
| `O=C(CS(=O)(=O)c1ccccc1)N1CCCCCC1` | 10000 | falling, partial curve |
| `CC1=C(C#N)C(c2cccnc2)C2=C(CC(C)(C)CC2=O)N1` (stereo not shown) | 12589 | rising, single point |
| `CCOC(=O)N1CCC(NCCNC(=O)c2ccc(Cl)cc2)CC1` | 158.5 | falling, full curve, poor fit |
| `COc1ccc(C2=CC(c3ccc(OC)c(OC)c3)n3nnnc3N2)c(OC)c1` (stereo not shown) | 12589 | rising, partial curve |
| `O=C1C=CC2=C3c4cc(O)c(O)cc4C[C@@]3(O)COC2=C1O` | 19952 | falling, partial curve |
| `N#Cc1cccc(NC(=O)NCCc2c[nH]c3ccccc23)c1` | 10000 | falling, partial curve |
| `OCCN1CCN(c2nc(-c3ccccc3)nc3c2oc2ccccc23)CC1` | 25.12 | falling, full curve, poor fit |
| `COc1cc(S(=O)(=O)NCC2CCCO2)c(OC)cc1Cl` (stereo not shown) | 3.162 | rising, full curve, poor fit |
| `COc1ccc(-c2cc3nc(C)cc(C)n3n2)c(OC)c1` | 63.1 | rising, full curve |
| `N#Cc1ccc(CSc2nnc(-c3cccnc3)n2-c2ccccc2)cc1` | 125.9 | falling, full curve, poor fit |
| `CCOC(=O)C1Cc2ccccc2C(=O)O1` (stereo not shown) | 398.1 | falling, single point |
| `O=C(Nc1ccc(N2CCN(C(=O)c3ccco3)CC2)c(Cl)c1)c1cccs1` | 5012 | falling, partial curve, poor fit |
| `COc1ccc(OC)c(Nc2nc(-c3sc(N)nc3C)cs2)c1` | 1000 | falling, full curve, poor fit |
| `Cc1c(C(=O)NCCC2=CCCCC2)oc2ccc(S(=O)(=O)N3CCOCC3)cc12` | 10000 | falling, partial curve |
| `COC(=O)Cn1c(CN2CCC(Cc3ccccc3)CC2)nc2c1c(=O)n(C)c(=O)n2C` | 100 | rising, full curve, poor fit |
| `CC1(C(=O)NCCCNc2ncc(C(F)(F)F)cc2Cl)C=CC2(CCCCC2)N1C(=O)c1ccccc1` (stereo not shown) | 31622 | falling, single point |
| `O=c1oc(Cl)c(Cl)c2ccccc12` | 25118 | falling, single point |
| `CCOC(=O)C1=C(C)NC(=O)NC1c1ccco1` (stereo not shown) | 3162 | falling, single point |
| `O=C(NC12CC3CC(CC(C3)C1)C2)N1CCN(S(=O)(=O)c2ccc(Cl)cc2)CC1` | 3.981 | falling, full curve, poor fit |

6 of the entries, repeated:

| compound | AC50 (nM) | remark |
|---|---|---|
| `CC1(C(=O)NCCCNc2ncc(C(F)(F)F)cc2Cl)C=CC2(CCCCC2)N1C(=O)c1ccccc1` (stereo not shown) | 31622 | falling, single point |
| `c1ccc2c(N3CCCCC3)nc(N3CCCC3)nc2c1` | 316.2 | falling, partial curve |
| `C=CCNc1oc(-c2ccc(OCC)cc2)nc1C#N` | 5012 | falling, single point |
| `Cn1nc(-c2ccc(Cl)cc2)c2cc(C(=O)NCCCN3CCOCC3)sc21` | 3981 | falling, partial curve |
| `O=C(c1cc(C(F)(F)F)cc(C(F)(F)F)c1)N1CCC2(CCCN(c3ccccc3)C2)CC1` | 1000 | falling, full curve |
| `N#Cc1nc(-c2ccc(OCc3ccccc3)cc2)oc1NCc1ccco1` | 15848 | falling, partial curve, poor fit |